± gives the standard error. The uncertainty is large for many entries.
B1: glmS ribozyme (parent)
chain: AUAAAAGCGCCAGAACUACAGAAAUGUAGUUGACGAGGAGGAGGUUUAUCGAAUUUUCGGCGGAUGCCUCCAAA

Variants of: B1
Experiment: self-cleavage kobs at 160 uM GlcN6P; higher = faster cleavage; RNA array
Settings: with glucosamine-6-phosphate
How it was run: (§1)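 Barcoded glmS ribozyme variants on sequenced MiSeq chips were transcribed in situ by E. coli RNA polymerase and tracked through a hybridised Cy3 probe at 37 °C. Glucosamine-6-phosphate (40 μM to 10 mM) in HEPES/KCl/Mg(OAc)2 buffer was flowed in, and tiles were imaged over ~14 h. Signals were normalised to baseline and to non-cleaving reference variants; per-tile medians were fit to one- or two-exponential decays to give kobs. kcat and KM came from weighted Michaelis–Menten fits across concentrations.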

Row | Variant | self-cleavage kobs at 160 uM GlcN6P
1 | C11A A36U C70G | 2.89e-05 ± 1.7e-05 s⁻¹
2 | A15C U45C | 2.83e-05 ± 2.4e-05 s⁻¹
3 | A12U C50U C67G | 2.97e-05 ± 2.5e-05 s⁻¹
4 | G13A C67G C68U | 3.68e-05 ± 2e-05 s⁻¹
5 | A15C C58A C67G C71G | 3.27e-05 ± 2.2e-05 s⁻¹
6 | G13A A36G U69G | 0.000112 ± 5.7e-05 s⁻¹
7 | G13U U54G C70G | 6.1e-05 ± 3.4e-05 s⁻¹
8 | A12C G66C | 5.14e-05 ± 2.7e-05 s⁻¹
9 | C11U C34G C50G C67G C68U | 2.23e-05 ± 1.7e-05 s⁻¹
10 | C11A C71U | 2.13e-05 ± 1.9e-05 s⁻¹
11 | G37U U69A | 2.41e-05 ± 2.2e-05 s⁻¹
12 | A36G G63U C70A | 2.13e-05 ± 2.1e-05 s⁻¹
13 | A33G C50G G66A | 3.62e-05 ± 2.9e-05 s⁻¹
14 | A12C G32A | 1.51e-05 ± 1.5e-05 s⁻¹
15 | C8G A36C C70G | 3.07e-05 ± 2.9e-05 s⁻¹
16 | C16A G40U U54C C71U | 1.93e-05 ± 1.6e-05 s⁻¹
17 | C61A C68G | 1.83e-05 ± 1.7e-05 s⁻¹

Taken from above for reference:
Row | Variant | self-cleavage kobs at 160 uM GlcN6P
12 | A36G G63U C70A | 2.13e-05 ± 2.1e-05 s⁻¹
13 | A33G C50G G66A | 3.62e-05 ± 2.9e-05 s⁻¹
14 | A12C G32A | 1.51e-05 ± 1.5e-05 s⁻¹
15 | C8G A36C C70G | 3.07e-05 ± 2.9e-05 s⁻¹
16 | C16A G40U U54C C71U | 1.93e-05 ± 1.6e-05 s⁻¹

Variants of: B1
Experiment: self-cleavage kobs at 10000 uM GlcN6P; higher = faster cleavage; RNA array
Settings: with glucosamine-6-phosphate
How it was run: as §1

Row | Variant | self-cleavage kobs at 10000 uM GlcN6P
18 | C11A A36U C70G | 3.79e-05 ± 2e-05 s⁻¹
19 | G38U C67G | 1.54e-05 ± 9.3e-06 s⁻¹
20 | A33U U69A | 2.1e-05 ± 1.3e-05 s⁻¹
21 | A15G G29U C50G | 3.2e-05 ± 2e-05 s⁻¹
22 | A48U C50G C67U | 2.74e-05 ± 1.9e-05 s⁻¹

Variants of: B1
Experiment: self-cleavage kobs at 640 uM GlcN6P; higher = faster cleavage; RNA array
Settings: with glucosamine-6-phosphate
How it was run: as §1

Row | Variant | self-cleavage kobs at 640 uM GlcN6P
23 | G29U U57C | 1.99e-05 ± 1.4e-05 s⁻¹
24 | G37C U46G U69G | 0.000588 ± 0.00033 s⁻¹
25 | A15G G32A C58G | 2.22e-05 ± 1.9e-05 s⁻¹
26 | G37C U56C C58U C67U | 2.94e-05 ± 2.6e-05 s⁻¹
27 | A48G C50U C70U | 3.38e-05 ± 2.2e-05 s⁻¹
28 | A15G G38U U57A G62U U69A | 0.000989 ± 0.00053 s⁻¹
29 | C16U C50G U55C | 0.000706 ± 0.00042 s⁻¹
30 | C16G G51A U69G | 6.62e-05 ± 3.4e-05 s⁻¹
31 | U27G C61G C67U | 5.06e-05 ± 3.7e-05 s⁻¹
32 | A48G C58G G63A C70A | 3.53e-05 ± 2.4e-05 s⁻¹
33 | C16A G29U C68U C71U | 2.66e-05 ± 1.8e-05 s⁻¹
34 | C61A G63A C70G | 3.07e-05 ± 2.4e-05 s⁻¹
35 | G32C A36C G37C G62C U69G | 5.17e-05 ± 2.6e-05 s⁻¹
36 | G37U C68U C71G | 4.41e-05 ± 2.5e-05 s⁻¹
37 | A39G C68A | 4.03e-05 ± 2.7e-05 s⁻¹
38 | G38U C67G | 0.000201 ± 0.00016 s⁻¹
39 | A48U A53U U69C | 2.58e-05 ± 2e-05 s⁻¹
40 | G37U U69A | 2.14e-05 ± 1.7e-05 s⁻¹
41 | C16U C58U U69G | 4.27e-05 ± 2.7e-05 s⁻¹
42 | A52C C67A C68G | 4.2e-05 ± 2.2e-05 s⁻¹

Row | Variant | self-cleavage kobs at 640 uM GlcN6P
43 | A15U G32U A39U C67G | 2.28e-05 ± 2.2e-05 s⁻¹
44 | U30C U54A C68A | 2.99e-05 ± 2.9e-05 s⁻¹
45 | A36G G63U C70A | 3.44e-05 ± 2.9e-05 s⁻¹
46 | U30A U54A C67U C68A | 2.37e-05 ± 2e-05 s⁻¹
47 | G37A A39U U65C | 1.85e-05 ± 1.7e-05 s⁻¹
48 | A33G C50G G66A | 3.71e-05 ± 2.7e-05 s⁻¹
49 | U55G A64U | 1.55e-05 ± 9.9e-06 s⁻¹
50 | U65C C67U | 2.16e-05 ± 1.4e-05 s⁻¹
51 | G41C U65A | 1.69e-05 ± 1.2e-05 s⁻¹
52 | C16G G66A U69G | 3.5e-05 ± 2.7e-05 s⁻¹
53 | A33U U69A | 3.26e-05 ± 2.6e-05 s⁻¹
54 | C16G U31A A39U U45G | 4.95e-05 ± 3.3e-05 s⁻¹
55 | A15U A33G U69A | 3.65e-05 ± 2e-05 s⁻¹
56 | G59U C67U U69A | 3.36e-05 ± 2e-05 s⁻¹
57 | C16A A39U C71A | 2.9e-05 ± 2.6e-05 s⁻¹
58 | A64C G66A | 1.7e-05 ± 1.6e-05 s⁻¹
59 | A53U A64U | 2.48e-05 ± 1.6e-05 s⁻¹
60 | A15G G29U C50G | 3.1e-05 ± 2.4e-05 s⁻¹
61 | U47G G59C C70U | 4.17e-05 ± 2.8e-05 s⁻¹
62 | U31A A52U | 2.58e-05 ± 1.7e-05 s⁻¹

Row | Variant | self-cleavage kobs at 640 uM GlcN6P
63 | U57A A64U C67U U69G | 3.8e-05 ± 2.3e-05 s⁻¹
64 | C19A U30C | 6.65e-05 ± 3.5e-05 s⁻¹
65 | A15U C58A | 2.1e-05 ± 1.3e-05 s⁻¹
66 | U45C G66C C71A | 0.000576 ± 0.0003 s⁻¹
67 | G38U G63A C67G | 3.5e-05 ± 2.6e-05 s⁻¹
68 | U56A U57C | 3.13e-05 ± 1.8e-05 s⁻¹
69 | A39C A42G C71A | 4.7e-05 ± 2.8e-05 s⁻¹
70 | U30G C58G A64C C67G C71G | 9.88e-05 ± 5.8e-05 s⁻¹
71 | A15G C50U | 3.59e-05 ± 2.1e-05 s⁻¹
72 | G37U G38C U47G C50A C70U | 3.9e-05 ± 2.3e-05 s⁻¹
73 | C16A G40U U54C C71U | 1.56e-05 ± 1e-05 s⁻¹
74 | C61A C68G | 2.36e-05 ± 1.7e-05 s⁻¹
75 | U49G C58U C70U C71U | 2.96e-05 ± 2.9e-05 s⁻¹
76 | C50G U54A U65A | 2.96e-05 ± 2.8e-05 s⁻¹
77 | A53C U56C | 2.69e-05 ± 1.9e-05 s⁻¹
78 | A33G A53U C68G | 2.74e-05 ± 2.6e-05 s⁻¹
79 | A48U C50G C67U | 0.000257 ± 0.00017 s⁻¹
80 | G38U U47G C71U | 4.22e-05 ± 3.3e-05 s⁻¹
81 | G62C C67U U69A | 2.86e-05 ± 2.2e-05 s⁻¹

Variants of: B1
Experiment: self-cleavage kobs at 2500 uM GlcN6P; higher = faster cleavage; RNA array
Settings: with glucosamine-6-phosphate
How it was run: as §1

Row | Variant | self-cleavage kobs at 2500 uM GlcN6P
82 | G13A C67G C68U | 4.76e-05 ± 2.4e-05 s⁻¹
83 | A15C C58A C67G C71G | 3.79e-05 ± 2.6e-05 s⁻¹
84 | C16G G51A U69G | 3.04e-05 ± 2.9e-05 s⁻¹
85 | U27G C61G C67U | 4.45e-05 ± 3.4e-05 s⁻¹
86 | A12C G66C | 5.13e-05 ± 4.5e-05 s⁻¹
87 | C11U C34G C50G C67G C68U | 3.25e-05 ± 2.3e-05 s⁻¹
88 | G37U U69A | 3.08e-05 ± 2.7e-05 s⁻¹
89 | A15U A33G U69A | 5.08e-05 ± 2.7e-05 s⁻¹
90 | G59U C67U U69A | 3.61e-05 ± 2.1e-05 s⁻¹
91 | A39C A42G C71A | 3.01e-05 ± 2.7e-05 s⁻¹
92 | U30G C58G A64C C67G C71G | 3.24e-05 ± 2e-05 s⁻¹
93 | C61A C68G | 1.76e-05 ± 1.6e-05 s⁻¹
94 | G38U U47G C71U | 3.84e-05 ± 2.7e-05 s⁻¹
95 | G62C C67U U69A | 2.9e-05 ± 2.4e-05 s⁻¹
